Results are given in words; binding and its absence hold for the method and conditions named. Some results given as binding are weak or reduced against the parent protein; the word gives no strength.
B1: AtCLPS3 (protein, UniProt Q9SR06 1-444)
chain: MAYGGPSMNPPALSGAVPGSANLKQVKLERESELRIEVSEEPLRLRVVNGTAEIFGSELPPEIWRTFPPRMKFAVFTWYGATIEMDGVTETDYTADETPMVSYINVHAILDARRRFAKASTSNDPESSQGPRVIVVGPTDSGKSTLTKMLLSWAAKQGWRPTFVDLDVGQGSITIPGSIAAAPIEMPLDPVEGFPLDMALVYYYGHASPNMNVELYKALVKELAQVLEKQFVGNPESRAAGMVINTMGWIEGIGYELLLHAIDTFNASVVLVLGQEKLFSRLKDVLRSKSNVDVVKLHKSGGVVARVKEVRKRSRNFKIQEYFYGLSKELSPYANTSSFSDLQVFRIGGGPQAPKSALPAGSTSVSNPLRVTPVNIDDRDLLHSVLAVSYAEEPDQIISSNVSGFVYVTEVNVQKKKITYLAPSPGTLPSKLLVAGSLAWLESV
B2: AtCPSF73-I (protein, UniProt Q9C952 1-693)
chain: MASSSTSLKRREQPISRDGDQLIVTPLGAGSEVGRSCVYMSFRGKNILFDCGIHPAYSGMAALPYFDEIDPSSIDVLLITHFHIDHAASLPYFLEKTTFNGRVFMTHATKAIYKLLLTDYVKVSKVSVEDMLFDEQDINKSMDKIEVIDFHQTVEVNGIKFWCYTAGHVLGAAMFMVDIAGVRILYTGDYSREEDRHLRAAELPQFSPDICIIESTSGVQLHQSRHIREKRFTDVIHSTVAQGGRVLIPAFALGRAQELLLILDEYWANHPDLHNIPIYYASPLAKKCMAVYQTYILSMNDRIRNQFANSNPFVFKHISPLNSIDDFNDVGPSVVMATPGGLQSGLSRQLFDSWCSDKKNACIIPGYMVEGTLAKTIINEPKEVTLMNGLTAPLNMQVHYISFSAHADYAQTSTFLKELMPPNIILVHGEANEMMRLKQKLLTEFPDGNTKIMTPKNCESVEMYFNSEKLAKTIGRLAEKTPDVGDTVSGILVKKGFTYQIMAPDELHVFSQLSTATVTQRITIPFVGAFGVIKHRLEKIFESVEFSTDEESGLPALKVHERVTVKQESEKHISLQWSSDPISDMVSDSIVALILNISREVPKIVMEEEDAVKSEEENGKKVEKVIYALLVSLFGDVKLGENGKLVIRVDGNVAQLDKESGEVESEHSGLKERVRVAFERIQSAVKPIPLSAS
B3: AtCPSF73-II (protein, UniProt Q8GUU3 1-613)
chain: MAIDCLVLGAGQEIGKSCVVVTINGKKIMFDCGMHMGCDDHNRYPNFSLISKSGDFDNAISCIIITHFHMDHVGALPYFTEVCGYNGPIYMSYPTKALSPLMLEDYRRVMVDRRGEEELFTTTHIANCMKKVIAIDLKQTIQVDEDLQIRAYYAGHVLGAVMVYAKMGDAAIVYTGDYNMTTDRHLGAAKIDRLQLDLLISESTYATTIRGSKYPREREFLQAVHKCVAGGGKALIPSFALGRAQELCMLLDDYWERMNIKVPIYFSSGLTIQANMYYKMLISWTSQNVKEKHNTHNPFDFKNVKDFDRSLIHAPGPCVLFATPGMLCAGFSLEVFKHWAPSPLNLVALPGYSVAGTVGHKLMAGKPTTVDLYNGTKVDVRCKVHQVAFSPHTDAKGIMDLTKFLSPKNVVLVHGEKPSMMILKEKITSELDIPCFVPANGETVSFASTTYIKANASDMFLKSCSNPNFKFSNSTQLRVTDHRTADGVLVIEKSKKAKIVHQDEISEVLHEKNHVVSLAHCCPVKVKGESEDDDVDLIKQLSAKILKTVSGAQIHESENCLQVASFKGSLCLKDKCMHRSSSSSSEAVFLCCNWSIADLELGWEIINAIKLNH

Legend:
Assay in all cases: two-hybrid; AD (pGAD-C(1)) and BD (pGBD-C(1)) fusions in yeast PJ69-4; dual transformants tested on media lacking leucine, tryptophan and adenine; positive if all tested colonies (4 to 10) grew; both combinations of clones tested whenever possible
AtCPSF30 (Arabidopsis) = molecular target: T1, AtCPSF30 (Arabidopsis) (UniProt A9LNK9)
T1 sequence: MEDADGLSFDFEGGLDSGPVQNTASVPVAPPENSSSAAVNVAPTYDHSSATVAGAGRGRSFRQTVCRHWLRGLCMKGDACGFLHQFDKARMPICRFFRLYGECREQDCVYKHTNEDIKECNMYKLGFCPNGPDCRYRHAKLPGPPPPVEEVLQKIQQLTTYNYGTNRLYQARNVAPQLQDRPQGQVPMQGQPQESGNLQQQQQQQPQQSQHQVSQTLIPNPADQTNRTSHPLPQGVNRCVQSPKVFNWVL

AtPCFS1 (Arabidopsis) = molecular target: T2, AtPCFS1 (Arabidopsis) (UniProt Q9C710)
T2 sequence: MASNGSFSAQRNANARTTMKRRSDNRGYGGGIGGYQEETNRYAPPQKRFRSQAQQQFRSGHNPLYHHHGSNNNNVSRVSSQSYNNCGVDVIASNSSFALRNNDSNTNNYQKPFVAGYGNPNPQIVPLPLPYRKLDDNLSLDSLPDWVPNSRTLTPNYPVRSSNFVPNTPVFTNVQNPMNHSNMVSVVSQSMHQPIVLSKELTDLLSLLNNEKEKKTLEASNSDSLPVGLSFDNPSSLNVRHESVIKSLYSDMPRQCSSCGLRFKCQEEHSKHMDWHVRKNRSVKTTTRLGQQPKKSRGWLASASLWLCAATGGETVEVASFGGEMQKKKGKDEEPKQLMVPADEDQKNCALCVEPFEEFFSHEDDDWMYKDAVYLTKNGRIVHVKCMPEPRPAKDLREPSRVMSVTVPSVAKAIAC

AtPCFS4 (Arabidopsis) = molecular target: T3, AtPCFS4 (Arabidopsis) (UniProt Q0WPF2)
T3 sequence: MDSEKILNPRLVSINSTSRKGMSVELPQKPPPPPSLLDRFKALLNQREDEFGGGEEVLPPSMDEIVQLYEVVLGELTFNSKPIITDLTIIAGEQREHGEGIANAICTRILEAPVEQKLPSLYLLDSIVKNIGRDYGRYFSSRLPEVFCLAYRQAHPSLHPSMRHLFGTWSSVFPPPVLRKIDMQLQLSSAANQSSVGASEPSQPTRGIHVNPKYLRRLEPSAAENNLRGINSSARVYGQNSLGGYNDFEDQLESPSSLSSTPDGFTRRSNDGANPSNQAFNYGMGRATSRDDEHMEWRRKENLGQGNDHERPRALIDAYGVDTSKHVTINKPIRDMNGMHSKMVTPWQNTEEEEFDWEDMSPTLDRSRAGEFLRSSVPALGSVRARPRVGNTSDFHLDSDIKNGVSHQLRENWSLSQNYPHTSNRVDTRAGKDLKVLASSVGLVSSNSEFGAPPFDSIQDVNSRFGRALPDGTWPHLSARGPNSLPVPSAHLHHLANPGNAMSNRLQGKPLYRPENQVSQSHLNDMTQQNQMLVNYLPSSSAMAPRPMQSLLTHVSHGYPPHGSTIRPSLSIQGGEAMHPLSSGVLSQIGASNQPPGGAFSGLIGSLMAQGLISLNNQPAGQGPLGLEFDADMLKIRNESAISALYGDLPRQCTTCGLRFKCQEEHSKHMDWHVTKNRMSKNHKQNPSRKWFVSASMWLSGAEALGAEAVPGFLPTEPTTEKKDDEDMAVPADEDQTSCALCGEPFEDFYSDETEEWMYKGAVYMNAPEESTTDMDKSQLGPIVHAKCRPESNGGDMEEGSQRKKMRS

AtPCFS5 (Arabidopsis) = molecular target: T4, AtPCFS5 (Arabidopsis) (UniProt Q9FIX8)
T4 sequence: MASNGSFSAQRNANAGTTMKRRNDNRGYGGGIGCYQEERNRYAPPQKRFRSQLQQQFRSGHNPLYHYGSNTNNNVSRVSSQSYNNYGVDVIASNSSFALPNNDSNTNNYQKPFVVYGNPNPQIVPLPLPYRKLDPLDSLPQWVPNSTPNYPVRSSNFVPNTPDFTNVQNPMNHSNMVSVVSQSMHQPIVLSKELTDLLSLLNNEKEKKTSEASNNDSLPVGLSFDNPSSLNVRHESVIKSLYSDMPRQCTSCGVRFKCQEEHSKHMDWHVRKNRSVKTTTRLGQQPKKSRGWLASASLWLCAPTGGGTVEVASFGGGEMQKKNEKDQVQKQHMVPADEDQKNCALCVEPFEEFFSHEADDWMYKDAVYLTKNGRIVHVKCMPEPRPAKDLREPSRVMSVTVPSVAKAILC

AtCPSF73-I (Arabidopsis) = molecular target: T5, AtCPSF73-I (Arabidopsis) (UniProt Q9C952)
T5 sequence: B2 chain

[1] = molecular target: T6, AtCPSF73-II (Arabidopsis) (UniProt Q8GUU3)
T6 sequence: B3 chain

Binder | binding (AtCPSF30 (Arabidopsis)) | binding (AtPCFS1 (Arabidopsis)) | binding (AtPCFS4 (Arabidopsis)) | binding (AtPCFS5 (Arabidopsis)) | binding (AtCPSF73-I (Arabidopsis)) | binding [1]
B1 | binds | binds | binds | binds | – | –
B2 | – | – | – | – | no binding | no binding
B3 | – | – | – | – | – | no binding

From paper PMC2391170
